# Measured values as given in article PMC4015309, “Interaction of translationally controlled tumor protein with Apaf-1 is involved in the development of chemoresistance in HeLa cells” (BMC Cancer, 2014).
# By UniProt entry, the sequences of proteins in these tests, tags left out.
# UniProt O14727: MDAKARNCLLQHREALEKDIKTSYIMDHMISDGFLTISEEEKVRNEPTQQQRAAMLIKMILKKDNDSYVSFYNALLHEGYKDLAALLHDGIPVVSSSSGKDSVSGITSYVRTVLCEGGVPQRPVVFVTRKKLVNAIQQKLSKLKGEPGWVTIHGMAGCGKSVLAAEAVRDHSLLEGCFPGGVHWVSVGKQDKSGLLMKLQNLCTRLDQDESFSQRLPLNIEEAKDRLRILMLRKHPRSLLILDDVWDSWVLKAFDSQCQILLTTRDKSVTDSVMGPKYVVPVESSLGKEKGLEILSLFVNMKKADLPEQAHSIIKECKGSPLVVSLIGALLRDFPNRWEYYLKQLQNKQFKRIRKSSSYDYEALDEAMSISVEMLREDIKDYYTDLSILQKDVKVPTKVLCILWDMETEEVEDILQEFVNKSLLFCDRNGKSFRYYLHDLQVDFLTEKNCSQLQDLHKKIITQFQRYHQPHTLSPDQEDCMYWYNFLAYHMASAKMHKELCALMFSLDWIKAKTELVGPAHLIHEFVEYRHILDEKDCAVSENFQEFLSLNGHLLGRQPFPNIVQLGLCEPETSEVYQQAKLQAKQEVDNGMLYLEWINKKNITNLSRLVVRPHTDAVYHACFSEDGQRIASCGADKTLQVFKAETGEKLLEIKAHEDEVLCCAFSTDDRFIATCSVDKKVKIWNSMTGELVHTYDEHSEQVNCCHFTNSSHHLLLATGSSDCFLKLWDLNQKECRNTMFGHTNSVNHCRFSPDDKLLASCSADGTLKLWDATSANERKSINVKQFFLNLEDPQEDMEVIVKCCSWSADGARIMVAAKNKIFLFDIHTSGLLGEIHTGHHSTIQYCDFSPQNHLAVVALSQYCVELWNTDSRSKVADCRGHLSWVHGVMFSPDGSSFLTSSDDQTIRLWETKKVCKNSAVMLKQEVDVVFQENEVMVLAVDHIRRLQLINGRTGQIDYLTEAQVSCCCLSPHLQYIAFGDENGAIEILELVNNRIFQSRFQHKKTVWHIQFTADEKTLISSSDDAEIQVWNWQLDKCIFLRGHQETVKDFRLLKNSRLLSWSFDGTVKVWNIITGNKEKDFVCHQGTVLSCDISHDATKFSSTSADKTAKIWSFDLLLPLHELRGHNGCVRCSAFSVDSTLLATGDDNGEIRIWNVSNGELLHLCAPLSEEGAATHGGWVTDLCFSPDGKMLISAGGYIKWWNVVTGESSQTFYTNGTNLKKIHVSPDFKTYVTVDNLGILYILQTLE
# UniProt P00004: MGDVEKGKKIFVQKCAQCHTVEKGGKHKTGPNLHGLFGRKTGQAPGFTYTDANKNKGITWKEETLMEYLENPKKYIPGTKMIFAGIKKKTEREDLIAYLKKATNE
# No constants are given. Whether binding was seen depends on the method and setting. Binding seen in cells or lysates may run through a third protein. Some entries that bind do so weakly or less than the wild type. For part of these data: Tags and fused reporters may be left off the sequences shown.
# Assays:
# [1] = target: Apaf-1 (apoptotic protease activating factor-1), endogenous in HeLa (human (endogenous in HeLa)) (UniProt O14727); assay: co-IP; HeLa S-100 extract incubated with recombinant human TCTP, dATP and cytochrome c (1 h, 4°C, PBS); immunoprecipitated with anti-Apaf-1 antibody on Protein G-agarose; western blot; only the binder purified
# [2] = target: Apaf-1 (apoptotic protease activating factor-1), endogenous in HeLa (human (endogenous in HeLa)) (UniProt O14727); assay: as above; remark: listed apart in the source
# [3] = target: Apaf-1 (apoptotic protease activating factor-1), endogenous in HeLa (human (endogenous in HeLa)) (UniProt O14727); assay: co-IP; extracts of HeLa cells infected with Flag-tagged adTCTP or adNull (MOI 10), untreated or treated with 20 μM etoposide; immunoprecipitated with anti-Na,K-ATPase α1 or anti-Apaf-1 antibody; blotted with anti-Flag
molecule,measurement,setting,value
cytochrome c (from UniProt P00004 1-105),binding,[1],binds
"recombinant human TCTP (translationally controlled tumor protein) (protein, UniProt P13693 1-172) MIIYRDLISHDEMFSDIYKIREIADGLCLEVEGKMVSRTEGNIDDSLIGGNASAEGPEGEGTESTVITGVDIVMNHHLQETSFTKEAYKKYIKDYMKSIKGKLEEQRPERVKPFMTGAAEQIKHILANFKNYQFFIGENMNPDGMVALLDYREDGVTPYMIFFKDGLEMEKC",binding,[2],binds
"N-terminal Flag-tagged TCTP, full length (protein, UniProt P13693 1-172) MIIYRDLISHDEMFSDIYKIREIADGLCLEVEGKMVSRTEGNIDDSLIGGNASAEGPEGEGTESTVITGVDIVMNHHLQETSFTKEAYKKYIKDYMKSIKGKLEEQRPERVKPFMTGAAEQIKHILANFKNYQFFIGENMNPDGMVALLDYREDGVTPYMIFFKDGLEMEKC",binding,[3],binds
